Reference: patent US20020131970A1 (Scripps Research, published 2002)
No constants are given. Whether binding was seen depends on the method and setting. Some results given as binding are weak or reduced against the parent protein; the word gives no strength. One block for each substance: values may come before it.

By UniProt entry, the sequences of proteins in these tests, tags left out. Where a name states a change or a piece, a line headed by the entry shows the natural chain unless it says otherwise. Residues count along the entry.
UniProt P05362, residues 28-532: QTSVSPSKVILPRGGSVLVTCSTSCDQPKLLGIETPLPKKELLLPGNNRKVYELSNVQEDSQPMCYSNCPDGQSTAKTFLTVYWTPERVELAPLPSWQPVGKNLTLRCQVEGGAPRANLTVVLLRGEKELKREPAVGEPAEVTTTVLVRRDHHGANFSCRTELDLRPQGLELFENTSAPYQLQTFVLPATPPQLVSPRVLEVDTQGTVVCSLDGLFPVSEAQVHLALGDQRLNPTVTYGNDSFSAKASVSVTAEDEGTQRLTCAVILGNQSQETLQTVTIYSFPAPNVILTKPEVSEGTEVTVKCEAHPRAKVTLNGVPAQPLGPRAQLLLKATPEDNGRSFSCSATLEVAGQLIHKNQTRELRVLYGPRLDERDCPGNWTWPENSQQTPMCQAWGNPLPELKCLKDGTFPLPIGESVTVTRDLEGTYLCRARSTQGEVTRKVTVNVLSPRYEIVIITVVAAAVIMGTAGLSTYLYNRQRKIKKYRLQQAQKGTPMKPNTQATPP
UniProt P02671: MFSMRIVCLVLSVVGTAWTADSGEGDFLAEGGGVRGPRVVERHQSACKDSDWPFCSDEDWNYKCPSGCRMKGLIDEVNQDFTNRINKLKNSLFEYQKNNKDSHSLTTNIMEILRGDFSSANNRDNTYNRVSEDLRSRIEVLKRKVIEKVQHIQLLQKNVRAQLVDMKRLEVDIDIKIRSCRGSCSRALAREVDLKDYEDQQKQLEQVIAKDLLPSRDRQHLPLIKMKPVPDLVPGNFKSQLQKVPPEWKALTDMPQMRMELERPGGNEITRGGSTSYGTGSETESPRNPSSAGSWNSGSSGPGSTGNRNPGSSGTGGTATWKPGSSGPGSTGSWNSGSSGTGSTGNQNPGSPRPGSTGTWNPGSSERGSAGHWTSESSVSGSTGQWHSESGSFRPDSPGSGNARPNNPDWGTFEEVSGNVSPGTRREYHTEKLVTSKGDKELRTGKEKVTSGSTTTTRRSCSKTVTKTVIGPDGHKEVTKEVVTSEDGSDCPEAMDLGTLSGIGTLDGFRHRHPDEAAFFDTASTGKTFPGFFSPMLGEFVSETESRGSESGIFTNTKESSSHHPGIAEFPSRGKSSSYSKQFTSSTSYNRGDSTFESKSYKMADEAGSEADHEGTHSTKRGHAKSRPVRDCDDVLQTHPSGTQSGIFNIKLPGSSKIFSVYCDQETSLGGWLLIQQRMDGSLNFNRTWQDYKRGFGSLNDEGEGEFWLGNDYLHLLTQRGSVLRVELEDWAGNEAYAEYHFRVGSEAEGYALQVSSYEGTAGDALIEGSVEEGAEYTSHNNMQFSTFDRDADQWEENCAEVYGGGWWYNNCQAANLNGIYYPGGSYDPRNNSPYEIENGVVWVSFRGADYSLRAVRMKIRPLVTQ
UniProt P02675: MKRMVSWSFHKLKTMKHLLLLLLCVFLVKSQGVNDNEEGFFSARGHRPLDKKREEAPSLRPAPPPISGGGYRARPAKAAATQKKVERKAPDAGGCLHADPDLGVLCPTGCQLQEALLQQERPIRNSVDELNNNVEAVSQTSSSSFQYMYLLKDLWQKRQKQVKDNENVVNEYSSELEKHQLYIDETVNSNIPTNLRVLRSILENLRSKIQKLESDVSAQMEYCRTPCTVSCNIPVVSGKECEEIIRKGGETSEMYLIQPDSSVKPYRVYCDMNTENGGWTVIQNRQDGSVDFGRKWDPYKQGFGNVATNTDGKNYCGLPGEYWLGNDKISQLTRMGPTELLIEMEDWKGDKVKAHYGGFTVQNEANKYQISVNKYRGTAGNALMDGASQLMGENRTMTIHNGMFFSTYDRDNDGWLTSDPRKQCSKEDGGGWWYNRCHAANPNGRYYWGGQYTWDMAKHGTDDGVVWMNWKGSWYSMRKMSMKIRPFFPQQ
UniProt P06756: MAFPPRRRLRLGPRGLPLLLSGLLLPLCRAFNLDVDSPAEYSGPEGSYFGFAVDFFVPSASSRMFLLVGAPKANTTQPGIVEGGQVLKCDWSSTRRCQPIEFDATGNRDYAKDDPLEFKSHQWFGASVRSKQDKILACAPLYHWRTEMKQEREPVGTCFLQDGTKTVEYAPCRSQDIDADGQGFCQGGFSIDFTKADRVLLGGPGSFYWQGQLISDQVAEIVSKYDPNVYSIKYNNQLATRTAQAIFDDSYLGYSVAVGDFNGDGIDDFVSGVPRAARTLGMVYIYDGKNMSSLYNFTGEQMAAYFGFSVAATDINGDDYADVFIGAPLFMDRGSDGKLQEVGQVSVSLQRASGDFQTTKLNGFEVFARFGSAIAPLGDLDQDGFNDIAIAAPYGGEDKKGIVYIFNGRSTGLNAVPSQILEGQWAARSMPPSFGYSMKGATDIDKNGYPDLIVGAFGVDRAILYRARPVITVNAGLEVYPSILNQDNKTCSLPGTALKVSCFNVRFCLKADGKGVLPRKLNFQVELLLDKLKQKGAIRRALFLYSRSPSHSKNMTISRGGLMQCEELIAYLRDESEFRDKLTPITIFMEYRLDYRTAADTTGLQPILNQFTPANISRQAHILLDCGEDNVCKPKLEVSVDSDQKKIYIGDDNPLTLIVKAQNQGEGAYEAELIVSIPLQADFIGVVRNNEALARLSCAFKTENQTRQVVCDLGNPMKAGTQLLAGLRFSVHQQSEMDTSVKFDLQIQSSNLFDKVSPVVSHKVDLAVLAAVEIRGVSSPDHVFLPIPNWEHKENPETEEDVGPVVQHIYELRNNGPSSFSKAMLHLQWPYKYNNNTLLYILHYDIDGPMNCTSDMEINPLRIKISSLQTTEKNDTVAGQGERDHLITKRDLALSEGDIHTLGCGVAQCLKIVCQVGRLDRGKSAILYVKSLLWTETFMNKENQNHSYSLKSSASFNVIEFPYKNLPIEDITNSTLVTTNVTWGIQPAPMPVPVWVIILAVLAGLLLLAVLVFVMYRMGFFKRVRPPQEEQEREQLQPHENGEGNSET

Key:
[1] = molecular target: intercellular adhesion molecule 1 (ICAM-1), the RGD-independent fibrinogen receptor, native, on the surface of cells (HUVEC, JY lymphocytes) (human) (UniProt P05362); assay: 125I-fibrinogen on untreated, TNF- or LPS-stimulated HUVEC monolayers
[2] = molecular target: T1, fibrinogen (purified from fresh plasma, fibronectin-free) (human) (UniProt P02671+P02675); assay: fibrinogen Sepharose chromatography of HUVEC lysate precleared on RGD Sepharose
[3] = molecular target: T1, fibrinogen (purified from fresh plasma, fibronectin-free) (human); assay: affinity chromatography and immunoprecipitation
[4] = molecular target: T1, fibrinogen (purified from fresh plasma, fibronectin-free) (human); assay: affinity chromatography of 125I-labelled HUVEC lysate on fibrinogen Sepharose, RGE, RGD then EDTA elution
[5] = molecular target: T1, fibrinogen (purified from fresh plasma, fibronectin-free) (human); assay: affinity chromatography on fibrinogen Sepharose
[6] = molecular target: T1, fibrinogen (purified from fresh plasma, fibronectin-free) (human); assay: affinity chromatography of 125I-labelled HUVEC lysate on fibrinogen Sepharose, elution with RGD peptide

binding [1]: binds
Substance: fibrinogen (purified from fresh plasma, fibronectin-free) (from UniProt P02671 20-629; P02675 31-491) (ligand)

binding [2]: binds
binding [3]: binds
binding [4]: binds
Substance: purified endothelial cell receptor (ECR), 90-95 kD, identified as ICAM-1, detergent-solubilised from HUVEC (also the 90-95 kD band of HUVEC and Daudi cell lysates on Western blots) (from UniProt P05362 28-532)

binding [5]: binds
binding [6]: binds
Substance: vitronectin receptor, alpha v/beta 3, from HUVEC lysate (from UniProt P06756 31-1048; P05106 27-788)
